Results deposited as PubChem BioAssay AID504791 (Drosophila RNAi Screening Center, 2011).

- Aim: 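Genes of the fly required for silencing by miRNA, siRNA or endo-siRNA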 (primary screen)
- Cell system: Drosophila S2-derived reporter cells
- Reagents: long dsRNA against Drosophila genes, about 150-250 ng dsRNA per well (siRNA assay); about 80-120 ng (miRNA assay)
- Timing: about 5 days (siRNA assay); about 4 days (miRNA assay)
- Treatment: copper sulfate induction of reporters: 25 µM (siRNA assay); 200 mM stated (miRNA assay), 1-2 days before reading
- Measurement: 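Per-well ratio of Renilla over firefly light, expressed relative to that plate's average ratio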
- Call rule: 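a well was a first-pass pick when its plate-scaled ratio rose above 1.5 (siRNA assay) or 1.6 (miRNA assay), or dropped below 0.6; a gene counted only if two separate dsRNAs agreed on retest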
The deposit covers about 23,000 reagents; below is an unselected part of those with a known target gene and a result. In the full data, 199 (0.86%) got an active call. 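Plate-scaled ratios behind the calls are not deposited; printed light signals are raw; many rows marked increased or decreased are still called inactive.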 A number with no mark means an inactive call. The numbers tell different reagents against one gene apart. Names joined by + are all predicted targets of the reagent. Reagent sequences are not shown. Not given: the direction of the score.

| gene | dsRNA no. | stable siRNA reporter change | miRNA reporter change | stable assay Renilla, run 1 (luminescence) | stable assay firefly, run 1 (luminescence) |
| --- | --- | --- | --- | --- | --- |
| Pex7 | 1 | – | – | 6266 | 4.31e5 |
| Gem4b + Gem4c + Glos | 1 | – | – | 4975 | 3.11e5 |
| foxo | 1 | – | – | 3167 | 1.86e5 |
| foxo | 2 | – | – | 7786 | 3.95e5 |
| sofe | 1 | – | – | 9887 | 5.21e5 |
| lncRNA:CR32658 | 1 | – | – | 4344 | 3.56e5 |
| CG42676 | 1 | – | – | 7555 | 1.92e5 |
| CG42676 | 2 | – | – | 5171 | 3.32e5 |
| Obp56i | 1 | – | – | 4763 | 4.54e5 |
| Pyroxd1 | 1 | – | – | 7079 | 4.58e5 |
| Prdm13 | 1 | – | – | 5774 | 4.84e5 |
| dpr18 | 1 | – | – | 3947 | 3.00e5 |
| Vmat + CG13330 | 1 | – | – | 7775 | 3.62e5 |
| Pi3K21B | 1 | – | – | 14529 | 8.58e5 |
| Jon65Aii | 1 | – | – | 6486 | 4.68e5 |
| park + Targ3 | 1 | – | – | 9642 | 5.04e5 |
| Vajk3 | 1 | – | – | 6978 | 1.13e6 |
| Vajk3 | 2 | – | reporter ratio raised past the hit cutoff | – | – |
| CG4282 | 1 | – | – | 9773 | 3.58e5 |
| CG7196 (retired record) | 1 | – | – | 4990 | 3.56e5 |
| CG7196 (retired record) | 2 | – | – | 7617 | 5.81e5 |
| CG9921 | 1 | – | – | 4511 | 4.05e5 |
| CG12998 | 1 | – | – | 5242 | 4.05e5 |
| snRNP-U1-C | 1 | reporter ratio raised past the hit cutoff (active) | reporter ratio raised past the hit cutoff | 16638 | 2.86e5 |
| ND-51L2 | 1 | – | – | 6431 | 3.83e5 |
| CG31686 (retired record) | 1 | – | – | 4087 | 3.67e5 |
| Top3beta | 1 | – | – | 8256 | 5.41e5 |
| Ncc69 | 1 | – | – | 7575 | 3.63e5 |
| Ncc69 | 2 | – | – | 7335 | 4.96e5 |
| CG32243 | 1 | – | – | 5259 | 5.10e5 |
| CG32548 | 1 | – | – | 5055 | 3.05e5 |
| CG32548 | 2 | – | – | 8346 | 3.74e5 |
| CG3788 | 1 | – | – | 6699 | 3.59e5 |
| sns | 1 | – | – | 5298 | 2.50e5 |
| sns | 2 | – | – | 10130 | 4.79e5 |
| sns | 3 | – | – | 2508 | 3.23e5 |
| sns | 4 | – | – | 7179 | 4.64e5 |
| sns | 5 | – | – | 7059 | 4.97e5 |
| sns | 6 | reporter ratio raised past the hit cutoff | – | 6847 | 2.33e5 |
| Kots | 1 | – | – | 8334 | 5.28e5 |
| Bfc | 1 | – | – | 5476 | 2.91e5 |
| ssp3 | 1 | – | – | 7814 | 4.36e5 |
| ssp3 | 2 | – | – | 6908 | 4.64e5 |
| Gbs-70E | 1 | – | – | 7062 | 3.31e5 |
| CG17292 | 1 | – | – | 12704 | 1.00e6 |
| moody | 1 | – | – | 5880 | 3.22e5 |
| mys | 1 | – | – | 4807 | 3.16e5 |
| GrlHz | 1 | – | – | 28607 | 3.23e5 |
| Aduk | 1 | – | – | 6224 | 5.27e5 |
| CG17598 | 1 | – | – | 7003 | 4.23e5 |
| Vm32E | 1 | – | – | 8005 | 3.57e5 |
| CG31642 | 1 | – | – | 21109 | 5.62e5 |
| Cyp4d21 | 1 | – | – | 2.03e5 | 1.14e5 |
| tomboy20 | 1 | – | – | 6955 | 3.33e5 |
| U4-U6-60K | 1 | – | – | 7748 | 2.57e5 |
| Hrs | 1 | – | – | 11264 | 8.42e5 |
| Tbp | 1 | – | – | 5952 | 3.11e5 |
| Tbp | 2 | – | reporter ratio raised past the hit cutoff | 5327 | 3.67e5 |

Records above whose gene name starts with S or s (10):
| gene | dsRNA no. | stable siRNA reporter change | miRNA reporter change | stable assay Renilla, run 1 (luminescence) | stable assay firefly, run 1 (luminescence) |
| --- | --- | --- | --- | --- | --- |
| sofe | 1 | – | – | 9887 | 5.21e5 |
| snRNP-U1-C | 1 | reporter ratio raised past the hit cutoff (active) | reporter ratio raised past the hit cutoff | 16638 | 2.86e5 |
| sns | 1 | – | – | 5298 | 2.50e5 |
| sns | 2 | – | – | 10130 | 4.79e5 |
| sns | 3 | – | – | 2508 | 3.23e5 |
| sns | 4 | – | – | 7179 | 4.64e5 |
| sns | 5 | – | – | 7059 | 4.97e5 |
| sns | 6 | reporter ratio raised past the hit cutoff | – | 6847 | 2.33e5 |
| ssp3 | 1 | – | – | 7814 | 4.36e5 |
| ssp3 | 2 | – | – | 6908 | 4.64e5 |
